{"source": "PubChem BioAssay AID602196 – INSERM – 2012", "screen": "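Modifiers of cisplatin sensitivity in A549 cells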", "cells": "human A549 lung cancer cells", "reagent": "siRNA pair against human genes", "time to read-out": "48 h transfection before cisplatin; time from cisplatin to read-out not stated", "challenge": "cisplatin at a dose killing half of control-siRNA cells; exact dose and duration not given", "measured": "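Cisplatin cell death as a shift from the 50% death seen with control siRNA; siRNAs toxic or growth-blocking alone scored 0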", "reading the numbers": "two-siRNA summed score (-2 to +2): higher = both siRNAs protect from cisplatin killing; -2 means both sensitise", "active means": "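Each siRNA scores 0 if harmful alone by LDH or WST-1, otherwise +1 if it reduces and -1 if it increases cisplatin killing; a gene is active when both siRNAs agree (sum +2 or -2)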", "calls": "active = both siRNAs shift cisplatin killing the same way; inactive = no consistent shift, or siRNA harmful alone", "note": "Here is an unselected part of about 23,000 deposited reagents. In the full data, 455 (2%) got an active call. 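Active includes both protection and sensitisation; some change values fall well beyond the stated -50 to +50 range.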 Further read-outs or replicates are left out here. The record does not give: the amount of reagent."}
{"gene": "GSTM4 (glutathione S-transferase mu 4)", "two-siRNA summed score (-2 to +2)": -1, "activity call": "inactive"}
{"gene": "NR1D2 (nuclear receptor subfamily 1 group D member 2)", "two-siRNA summed score (-2 to +2)": 0, "activity call": "inactive"}
{"gene": "OR4D5 (olfactory receptor family 4 subfamily D member 5)", "two-siRNA summed score (-2 to +2)": 0, "activity call": "inactive"}
{"gene": "EHD3 (EH domain containing 3)", "two-siRNA summed score (-2 to +2)": 0, "activity call": "inactive"}
{"gene": "LOC441477", "two-siRNA summed score (-2 to +2)": 1, "activity call": "inactive"}
{"gene": "ETFDH (electron transfer flavoprotein dehydrogenase)", "two-siRNA summed score (-2 to +2)": 0, "activity call": "inactive"}
{"gene": "C3orf52 (chromosome 3 open reading frame 52)", "two-siRNA summed score (-2 to +2)": 0, "activity call": "inactive"}
{"gene": "RARS1 (arginyl-tRNA synthetase 1)", "two-siRNA summed score (-2 to +2)": -1, "activity call": "inactive"}
{"gene": "RPUSD3 (RNA pseudouridine synthase D3)", "two-siRNA summed score (-2 to +2)": 0, "activity call": "inactive"}
{"gene": "GABRB2 (gamma-aminobutyric acid type A receptor subunit beta2)", "two-siRNA summed score (-2 to +2)": 1, "activity call": "inactive"}
{"gene": "LOC442440", "two-siRNA summed score (-2 to +2)": 1, "activity call": "inactive"}
{"gene": "ANKHD1 (ankyrin repeat and KH domain containing 1)", "two-siRNA summed score (-2 to +2)": 0, "activity call": "inactive"}
{"gene": "SPACA3 (sperm acrosome associated 3)", "two-siRNA summed score (-2 to +2)": 1, "activity call": "inactive"}

As entered above:
For “activity call”, C3orf52 (chromosome 3 open reading frame 52) has inactive
For “activity call”, OR4D5 (olfactory receptor family 4 subfamily D member 5) has inactive
Under “two-siRNA summed score (-2 to +2)”, RARS1 (arginyl-tRNA synthetase 1) shows -1

More records follow.
{"gene": "MYZAP (myocardial zonula adherens protein)", "two-siRNA summed score (-2 to +2)": 0, "activity call": "inactive"}
{"gene": "LOC439945", "two-siRNA summed score (-2 to +2)": 0, "activity call": "inactive"}
{"gene": "LOC127602", "two-siRNA summed score (-2 to +2)": 0, "activity call": "inactive"}
{"gene": "ASCL1 (achaete-scute family bHLH transcription factor 1)", "two-siRNA summed score (-2 to +2)": 0, "activity call": "inactive"}
{"gene": "AS3MT (arsenite methyltransferase)", "two-siRNA summed score (-2 to +2)": 0, "activity call": "inactive"}
{"gene": "ADGRD1 (adhesion G protein-coupled receptor D1)", "two-siRNA summed score (-2 to +2)": 0, "activity call": "inactive"}
{"gene": "SIN3A (SIN3 transcription regulator family member A)", "two-siRNA summed score (-2 to +2)": 0, "activity call": "inactive"}
{"gene": "SLC27A4", "two-siRNA summed score (-2 to +2)": 1, "activity call": "inactive"}
{"gene": "MUC3A (mucin 3A, cell surface associated)", "two-siRNA summed score (-2 to +2)": 0, "activity call": "inactive"}
{"gene": "ZCCHC10 (zinc finger CCHC-type containing 10)", "two-siRNA summed score (-2 to +2)": 0, "activity call": "inactive"}
{"gene": "LTBR (lymphotoxin beta receptor)", "two-siRNA summed score (-2 to +2)": 1, "activity call": "inactive"}
{"gene": "FAAH2 (fatty acid amide hydrolase 2)", "two-siRNA summed score (-2 to +2)": 0, "activity call": "inactive"}
{"gene": "MAL (mal, T cell differentiation protein (MAL blood group))", "two-siRNA summed score (-2 to +2)": 0, "activity call": "inactive"}
{"gene": "SLC51B (SLC51 subunit beta)", "two-siRNA summed score (-2 to +2)": 0, "activity call": "inactive"}
{"gene": "IFI44L (interferon induced protein 44 like)", "two-siRNA summed score (-2 to +2)": 0, "activity call": "inactive"}
{"gene": "CRKL (CRK like proto-oncogene, adaptor protein)", "two-siRNA summed score (-2 to +2)": 1, "activity call": "inactive"}
{"gene": "PCBP2 (poly(rC) binding protein 2)", "two-siRNA summed score (-2 to +2)": 0, "activity call": "inactive"}
{"gene": "MOSPD1 (motile sperm domain containing 1)", "two-siRNA summed score (-2 to +2)": 0, "activity call": "inactive"}
{"gene": "ZSWIM6 (zinc finger SWIM-type containing 6)", "two-siRNA summed score (-2 to +2)": 0, "activity call": "inactive"}
{"gene": "CX3CR1 (C-X3-C motif chemokine receptor 1)", "two-siRNA summed score (-2 to +2)": 0, "activity call": "inactive"}
{"gene": "OR2A25 (olfactory receptor family 2 subfamily A member 25)", "two-siRNA summed score (-2 to +2)": 2, "activity call": "active"}
{"gene": "SFTPA2 (surfactant protein A2)", "two-siRNA summed score (-2 to +2)": 1, "activity call": "inactive"}
{"gene": "RPL13A (ribosomal protein L13a)", "two-siRNA summed score (-2 to +2)": 0, "activity call": "inactive"}
{"gene": "ST8SIA6 (ST8 alpha-N-acetyl-neuraminide alpha-2,8-sialyltransferase 6)", "two-siRNA summed score (-2 to +2)": 1, "activity call": "inactive"}
{"gene": "KCTD9 (potassium channel tetramerization domain containing 9)", "two-siRNA summed score (-2 to +2)": 0, "activity call": "inactive"}
{"gene": "NIBAN1 (niban apoptosis regulator 1)", "two-siRNA summed score (-2 to +2)": 0, "activity call": "inactive"}
{"gene": "HLA-DRB5 (major histocompatibility complex, class II, DR beta 5)", "two-siRNA summed score (-2 to +2)": 0, "activity call": "inactive"}
